Assay results as given in publication doi:10.1101/2025.06.23.660276.
Results are given in words; binding and its absence hold for the method and conditions named. Some results given as binding are weak or reduced against the parent protein; the word gives no strength. For some assays here: Where a sequence is shown, tags or fusion partners need not be part of it. Blank lines part the entries; values can stand above or below the binder they belong to.

Key:
TAF12-FLAG (C. albicans) = target: T1, TAF12-FLAG (C. albicans) (UniProt Q5ADM2); test: RNA immunoprecipitation with RT-qPCR; anti-FLAG M2 affinity gel on polysome-containing extracts of cells treated with 1mg/ml cycloheximide (puromycin-treated extracts as control), 4h at 4°C, washes with 350mM KCl; the partner's mRNA is measured as percent input
T1 sequence: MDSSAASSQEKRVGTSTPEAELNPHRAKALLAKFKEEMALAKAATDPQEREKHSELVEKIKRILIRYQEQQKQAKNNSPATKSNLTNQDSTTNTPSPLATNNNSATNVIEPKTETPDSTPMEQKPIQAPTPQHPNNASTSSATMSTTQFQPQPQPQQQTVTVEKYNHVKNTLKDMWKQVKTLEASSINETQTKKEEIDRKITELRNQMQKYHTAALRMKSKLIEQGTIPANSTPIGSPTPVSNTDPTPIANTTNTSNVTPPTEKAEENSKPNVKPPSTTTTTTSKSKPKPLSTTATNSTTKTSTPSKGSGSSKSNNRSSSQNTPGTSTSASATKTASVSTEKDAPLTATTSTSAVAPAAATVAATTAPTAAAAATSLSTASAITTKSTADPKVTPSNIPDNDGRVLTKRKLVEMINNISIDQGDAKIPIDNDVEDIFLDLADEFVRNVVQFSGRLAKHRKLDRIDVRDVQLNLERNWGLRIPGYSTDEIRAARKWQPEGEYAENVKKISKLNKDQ

[1] = target: 3xFLAG-tagged TAF12L (C. albicans); test: as above

- binding (TAF12-FLAG (C. albicans)): binds
B1: nascent TAF4 (protein, UniProt Q59U67 1-363)
chain: MTSTPQESSNLKRQLENSEDSSSPNKKSKTETTTENQSSWESDFNSLPVELLQTETNGTSPAPAPATPIDTTNVSNSKERDQDTSKLNDAIAAAGVDIQQEEEILLQQQLNRKSAEGMASNLKSVIRSSKSPPFLHNYHLAAFIDKVAKQNGIQQNFLMDGEMLELISAACETWLSNLATKTIILSRHRRRGIPVINKKSGSSSVPRSEISKELRSLALKQKEMEEKRVNKRVMLGLEKSTKDASKNDENGESKAGAEETLHRAANATAAMMTMNPGRKKYSWMTSSATAGGGSDFGKSSGGSSKDSGKHQSPIISVRGDNGLRFREIRSGNSIIMKDLLGAIEDEKMGTRNAVIKGYAKLKD

- binding [1]: binds
B2: nascent ribosome-associated Ada1 (protein, UniProt Q5AEG1 1-490)
chain: MTSQIADGSSTTTINPLKNGLAALKPTHQAHGTSTTTHLTNGSPKKIKSYKRLELERLIREFQNKLGKNWEKYHETLSLFLIGKLSRAELISTITPILKGKNLLKYHNKLLLLNFANSLKDNSSDLSTEFAGFWNKKAGKVTKNKNTQFERFKSVIMGLPVKERKRIIDISRDSGKKGKIATDIILTRHAILPKIPMIQDKEQQQLQVNNLVQWQQDVLNGINTPIATENYEIPDYDNLSRMMLMIMREHGLTGGLNPGVMEVMLLGLESHLKNIVETAIDVAKYRKNKYTNDNYIPYIKPNEDAQNISNENALPSSKDITLCIEDLHDTLEMYPHLVESEGPKLRLSNVMLENDDMINDDLNYYLPPKSIEYLAKERQAATTNDASTGTTKPGNNKGSSAGGSSAGATTNSPVVNKTDSTAAVSEKTDTNQPLQTPTATQTPVQTSAQAPASAPAQTPAPVSTPILRPDAHIGTTDELKWVLHDLVSTM
